From doi:10.1101/2024.10.29.620780
These are yes or no findings as the source states them, for the method shown. Some results given as binding are weak or reduced against the parent protein; the word gives no strength.

Target: T1, StrepII-AtPAD4 (Arabidopsis) (UniProt Q9S745)
T1 sequence: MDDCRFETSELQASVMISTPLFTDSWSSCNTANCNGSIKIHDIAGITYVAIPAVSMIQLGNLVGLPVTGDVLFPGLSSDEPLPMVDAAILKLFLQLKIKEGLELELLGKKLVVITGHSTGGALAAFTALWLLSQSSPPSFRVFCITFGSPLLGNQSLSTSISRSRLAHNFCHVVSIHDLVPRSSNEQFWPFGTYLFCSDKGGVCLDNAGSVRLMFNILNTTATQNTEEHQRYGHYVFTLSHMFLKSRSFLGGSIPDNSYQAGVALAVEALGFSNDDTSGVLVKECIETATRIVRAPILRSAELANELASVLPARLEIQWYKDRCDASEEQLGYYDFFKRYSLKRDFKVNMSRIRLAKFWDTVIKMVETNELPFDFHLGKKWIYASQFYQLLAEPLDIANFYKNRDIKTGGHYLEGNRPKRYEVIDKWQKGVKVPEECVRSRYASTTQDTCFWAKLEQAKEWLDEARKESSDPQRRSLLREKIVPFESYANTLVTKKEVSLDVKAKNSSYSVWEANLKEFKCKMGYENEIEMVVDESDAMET
Experiment: cryo-EM structure

B1: StrepII-AtEDS1 (protein, UniProt Q9SU72 1-623)
chain: MAFEALTGINGDLITRSWSASKQAYLTERYHKEEAGAVVIFAFQPSFSEKDFFDPDNKSSFGEIKLNRVQFPCMRKIGKGDVATVNEAFLKNLEAIIDPRTSFQASVEMAVRSRKQIVFTGHSSGGATAILATVWYLEKYFIRNPNVYLEPRCVTFGAPLVGDSIFSHALGREKWSRFFVNFVSRFDIVPRIMLARKASVEETLPHVLAQLDPRKSSVQESEQRITEFYTRVMRDTSTVANQAVCELTGSAEAFLETLSSFLELSPYRPAGTFVFSTEKRLVAVNNSDAILQMLFYTSQASDEQEWSLIPFRSIRDHHSYEELVQSMGKKLFNHLDGENSIESTLNDLGVSTRGRQYVQAALEEEKKRVENQKKIIQVIEQERFLKKLAWIEDEYKPKCQAHKNGYYDSFKVSNEENDFKANVKRAELAGVFDEVLGLMKKCQLPDEFEGDIDWIKLATRYRRLVEPLDIANYHRHLKNEDTGPYMKRGRPTRYIYAQRGYEHYILKPNGMIAEDVFWNKVNGLNLGLQLEEIQETLKNSGSECGSCFWAEVEELKGKPYEEVEVRVKTLEGMLGEWITDGEVDDKEIFLEGSTFRKWWITLPKNHKSHSPLRDYMMDEITDT
B1 was tested. Which binding did it give?
Its binding is “binds”.
